For four molecules, binding results are on record in article doi:10.1101/725697.

The chains are these.
B1: Arabidopsis SUMO3 fused to SCFP3A amino acids 156-239 (protein, UniProt Q9FLP5 1-111)
chain: MSNPQDDKPIDQEQEAHVILKVKSQDGDEVLFKNKKSAPLKKLMYVYCDRRGLKLDAFAFIFNGARIGGLETPDELDMEDGDVIDACRAMSGGLRANQRQWSYMLFDHNGL
B2: Arabidopsis E2 SUMO conjugating enzyme SCE1 fused to SCFP3A amino acids 156-239 (enzyme, UniProt Q42551 1-160)
chain: MASGIARGRLAEERKSWRKNHPHGFVAKPETGQDGTVNLMVWHCTIPGKAGTDWEGGFFPLTMHFSEDYPSKPPKCKFPQGFFHPNVYPSGTVCLSILNEDYGWRPAITVKQILVGIQDLLDTPNPADPAQTDGYHLFCQDPVEYKKRVKLQSKQYPALV
B3: Arabidopsis SUMO5 fused to SCFP3A amino acids 156-239 (protein, UniProt Q8VZI7 1-108)
chain: MVSSTDTISASFVSKKSRSPETSPHMKVTLKVKNQQGAEDLYKIGTHAHLKKLMSAYCTKRNLDYSSVRFVYNGREIKARQTPAQLHMEEEDEICMVMELGGGGPYTP
B4: AtSIZ1 fused to SCFP3A amino acids 156-239 (pC:AtSIZ1) (enzyme, UniProt Q680Q4 1-884)
chain: MDLEANCKEKLSYFRIKELKDVLTQLGLSKQGKKQELVDRILTLLSDEQAARLLSKKNTVAKEAVAKLVDDTYRKMQVSGASDLASKGQVSSDTSNLKVKGEPEDPFQPEIKVRCVCGNSLETDSMIQCEDPRCHVWQHVGCVILPDKPMDGNPPLPESFYCEICRLTRADPFWVTVAHPLSPVRLTATTIPNDGASTMQSVERTFQITRADKDLLAKPEYDVQAWCMLLNDKVLFRMQWPQYADLQVNGVPVRAINRPGGQLLGVNGRDDGPIITSCIRDGVNRISLSGGDVRIFCFGVRLVKRRTLQQVLNLIPEEGKGETFEDALARVRRCIGGGGGDDNADSDSDIEVVADFFGVNLRCPMSGSRIKVAGRFLPCVHMGCFDLDVFVELNQRSRKWQCPICLKNYSVEHVIVDPYFNRITSKMKHCDEEVTEIEVKPDGSWRVKFKRESERRELGELSQWHAPDGSLCPSAVDIKRKMEMLPVKQEGYSDGPAPLKLGIRKNRNGIWEVSKPNTNGLSSSNRQEKVGYQEKNIIPMSSSATGSGRDGDDASVNQDAIGTFDFVANGMELDSISMNVDSGYNFPDRNQSGEGGNNEVIVLSDSDDENDLVITPGPAYSGCQTDGGLTFPLNPPGIINSYNEDPHSIAGGSSGLGLFNDDDEFDTPLWSFPSETPEAPGFQLFRSDADVSGGLVGLHHHSPLNCSPEINGGYTMAPETSMASVPVVPGSTGRSEANDGLVDNPLAFGRDDPSLQIFLPTKPDASAQSGFKNQADMSNGLRSEDWISLRLGDSASGNHGDPATTNGINSSHQMSTREGSMDTTTETASLLLGMNDSRQDKAKKQRSDNPFSFPRQKRSNNEQDHQTRHRSLNKICIILCAGKN

No constants are given. Whether binding was seen depends on the method and setting. Binding seen in cells or lysates may run through a third protein. A result given as binding can be weak or reduced; the word gives no strength. Tags and fused reporters may be left off the sequences shown.

This experiment has as its target GpRbp-1 fused to SCFP3A amino acids 1-173 (pN:Rbp1) (Globodera pallida). Description: split reporter.
With B1, the binding result is reported as “binds”.

Regarding B2, the binding entry is recorded as “binds”.

On to B3, for which the binding result is given as “binds”.

B4: the binding result is “binds”.
